Assay results published in patent US7732622B2, “Naphthalene derivatives” (Glaxo Group Limited, priority 2001, dated 2010).
Some of these results come from one statement about several compounds together.

The chains behind the UniProt entries cited, without tags or fusion partners. Where a name states a change or a piece, a line headed by the entry shows the natural chain unless it says otherwise.
UniProt P35408: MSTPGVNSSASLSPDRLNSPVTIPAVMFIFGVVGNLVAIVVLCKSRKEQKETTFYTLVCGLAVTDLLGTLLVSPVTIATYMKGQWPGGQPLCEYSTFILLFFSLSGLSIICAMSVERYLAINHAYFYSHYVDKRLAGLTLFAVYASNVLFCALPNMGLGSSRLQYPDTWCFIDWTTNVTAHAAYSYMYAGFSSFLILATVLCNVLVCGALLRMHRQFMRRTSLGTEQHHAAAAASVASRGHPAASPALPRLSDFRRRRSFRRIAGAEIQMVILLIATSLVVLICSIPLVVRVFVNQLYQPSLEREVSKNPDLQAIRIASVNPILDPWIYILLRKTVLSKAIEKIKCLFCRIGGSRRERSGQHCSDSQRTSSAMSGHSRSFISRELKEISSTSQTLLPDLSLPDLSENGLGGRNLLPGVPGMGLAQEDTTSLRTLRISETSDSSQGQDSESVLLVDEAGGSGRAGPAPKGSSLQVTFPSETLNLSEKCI

Target: T1, human EP4 receptor (Homo sapiens, UniProt P35408)
T1 construct: expressed in transfected cells; host or cells: CHO cells infected with recombinant Semliki Forest Virus (SFV-1) particles; membranes prepared
Assay: Human EP4 Scintillation Proximity Assay (radioligand binding)
Conditions: SPA, membranes of CHO cells expressing human EP4 receptor, 1.25 nM [3H]-prostaglandin E2 as radioligand; pKi from IC50 by Cheng-Prusoff correction
Experimental: Quantification of radioligand binding by scintillation proximity assay (SPA) is a long-established principle. Briefly, the affinity of novel compounds for a receptor is assessed by the specific competition between known quantities of radiolabelled ligand and novel compound for that receptor. Increasing concentrations of novel compound reduce the amount of radiolabel that binds to the receptor. This gives rise to a diminishing scintillation signal from SPA beads coated with membranes that bear the receptor. The signal may be detected with a suitable scintillation counter and the data generated may be analysed with suitable curve-fitting software. […]
For assay, membranes expressing human EP4 receptors are diluted in a pH-buffered medium and mixed with SPA beads coated with a suitable substance to facilitate the adhesion of membranes to the beads. […] Non-specific binding (nsb) may be determined by competition between the radiolabelled ligand and a saturating concentration of unlabelled ligand. In order to quantify the affinity of novel EP4 receptor ligands, compounds are diluted in a stepwise manner across the wells of a 96-well plate. […] The affinity (pKi) of the novel compound may be calculated from the IC50 by application of the Cheng-Prusoff correction. […]

Row | Substance | pKi at EP4 receptors
1 | [4-(4-Ethoxy-9-isopropoxy-1-oxo-1,3-dihydro-2H-benzo[f]isoindol-2-yl)phenyl]acetic acid and [4-(9-ethoxy-4-isopropoxy-1-oxo-1,3-dihydro-2H-benzo[f]isoindol-2-yl)phenyl]acetic acid [Example 8] | ≥ 6.0
2 | [4-(9-isopropoxy-4-propoxy-1-oxo-1,3-dihydro-2H-benzo[f]isoindol-2-yl)phenyl]acetic acid and [4-(4-isopropoxy-9-propoxy-1-oxo-1,3-dihydro-2H-benzo[f]isoindol-2-yl)phenyl]acetic acid [Example 9] | ≥ 6.0
